The nature of this test: qHTS Assay for Lipid Storage Modulators in Drosophila S3 Cells.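 On cell number change: cells counted by Cell Tracker Red CMTPX staining in the red channel.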 To be noted: BODIPY lipid droplet fluorescence, 18-24 h; for cell number change: measured here: cell count max response, cells fed with added oleic acid. The method in brief:
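Laser-scanning cytometry quantifies lipid droplet accumulation (500–530 nm total intensity; droplet/cell object ratio) in oleic acid-fed (400 uM added) Drosophila S3 cells treated with a concentration series. 20 uM Triacsin C defined 100% inhibition.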

The mark [1] stands for this setting: measured here: lipid fluorescence (Fed channel) AC50, cells fed with added oleic acid.
The mark [2] stands for this setting: measured here: cell number channel AC50, cells fed with added oleic acid.

In PubChem BioAssay AID2685 (National Center for Advancing Translational Sciences (NCATS), 2010) one finds cell number change and AC50 data, which are given here for 58 compounds.

This is one part of the list. Further columns of the screen follow, without active or inactive calls. Compounds called inactive in the main read-out are mostly missing here. Words in brackets tell the shape of the fitted curve; partial curves, single points and poor fits give uncertain potencies.

On to `O=C(COC(=O)C1=COCCO1)Nc1ncc(C(F)(F)F)cc1Cl`, for which the cell number change is -0.0089%. The AC50 under setting [1] is 0.231 µM [falling, full curve, poor fit].

Regarding `Cc1ccc(S(=O)(=O)N2CCCCC2)cc1NC(=O)CSCC(=O)O`, the cell number change was -23.5%. Moreover, the AC50 under setting [1] was 0.651 µM [falling, full curve].

For `OC(Cc1ccncc1)(c1ccccc1)c1ccccc1`, the cell number change was determined as 19.4%. Further, the AC50 under setting [1] is 29.1 µM [falling, single point].

On to `Cc1cccc(NC(=O)Cn2nc(-c3ccco3)ccc2=O)c1C`, for which the cell number change was 3.36%. Further, the AC50 under setting [1] was 6.51 µM [falling, single point].

As to `CCN(CC)c1ccc(C(=O)OCC(=O)N(C)Cc2ccccc2)cc1`, the cell number change is 17.2%. Besides, the AC50 under setting [1] is 29.1 µM [falling, single point].

For `CC1CN(C(=O)c2cccc(S(=O)(=O)N3CCOCC3)c2)CC(C)O1` (centres undefined), the cell number change was 1.69%.

On to `CCn1c2ccccc2c2nnc(SCCN3CCOCC3)nc21`, for which the cell number change was -14.6%. In addition, the AC50 under setting [1] was 11.6 µM [falling, single point].

As to `CCCC(CCC)C(=O)Nc1c[nH]c(=O)[nH]c1=O`, the cell number change was 8.96%. Besides, the AC50 under setting [1] was 0.00651 µM [rising, full curve, poor fit].

Turning to `CCCCNC(=S)N(C)N=C1CCC(c2ccccc2)CC1` (centres undefined), the cell number change was 23.6%.

Take `Cc1nc2ccccc2n1CCC(=O)O`: the cell number change was found to be 9.46%. For the same compound, the AC50 under setting [1] was 29.1 µM [falling, single point].

Turning to `Cc1ccc(-n2nnnc2SCc2nnc(-c3ccccc3Br)o2)c(C)c1`, the cell number change is -34.2%. For the same compound, the AC50 under setting [2] was 16.4 µM [falling, partial curve].

On to `O=C(NN1C(=O)c2ccc(-c3ccc4c(c3)C(=O)N(NC(=O)c3cccnc3)C4=O)cc2C1=O)c1cccnc1`, for which the cell number change is -9.62%.

With `CCCCn1c(=O)nc2n(-c3ccc(OC)cc3)c3ccccc3cc-2c1=O`, the cell number change was determined as 36.9%. Also, the AC50 under setting [2] is 0.103 µM [rising, full curve, poor fit]. For the same compound, the AC50 under setting [1] is 29.1 µM [rising, partial curve, poor fit].

As to `COc1ccc(OC)c(S(=O)(=O)n2nnc3ccccc32)c1`, the cell number change was -25.9%. Besides, the AC50 under setting [2] was 0.0259 µM [falling, full curve]. Further, the AC50 under setting [1] is 2.31 µM [falling, full curve].

As to `CCCc1cc(C(=O)N2CCCC(Cc3ccccc3C)(C(=O)OCC)C2)no1` (centres undefined), the cell number change was -2.29%. In addition, the AC50 under setting [1] was 29.1 µM [rising, single point].

Regarding `CCc1ccc(CN(Cc2cccnc2)C(=O)/C=C/c2ccc(OC)cc2)cc1`, the cell number change came to 22.1%. Besides, the AC50 under setting [1] is 29.1 µM [falling, single point].

In the case of `CNC(=O)Nc1cc(C(F)(F)F)cc(C(F)(F)F)c1`, the cell number change stood at 44.2%. In addition, under setting [2], the AC50 was 29.1 µM [rising, single point]. Also, the AC50 under setting [1] was 7.31 µM [rising, partial curve].

For `COc1ccc(/C=C/C(=O)CC(O)(c2ccccc2)C(F)(F)F)cc1` (centres undefined), the cell number change is -22.8%. Also, the AC50 under setting [1] is 20.6 µM [falling, partial curve].

`O=C(NCC1CCCO1)c1cccc(Oc2c(Cl)cccc2[N+](=O)[O-])c1` (centres undefined): the cell number change is -53%. In addition, the AC50 under setting [2] was 13 µM [falling, partial curve, poor fit]. For the same compound, the AC50 under setting [1] is 25.9 µM [falling, partial curve, poor fit].

For `Cc1cccc(CSCCNC(=O)Nc2ccccc2)c1`, the cell number change was 19.4%. Besides, the AC50 under setting [1] is 11.6 µM [rising, single point].

With `CN(C)c1ccc(/C=N/NC(=O)C2CC2c2ccccc2)cc1` (centres undefined), the cell number change is -12.8%. Besides, the half-maximal activity concentration (AC50) under setting [1] was 29.1 µM [falling, single point].

For `COc1ccc(OC)c(NC(=O)CSc2nnc3ccc(-c4ccncc4)nn23)c1`, the AC50 under setting [1] is 0.58 µM [falling, single point].

`CSCCC(NC(=O)C12CC3CC(CC(C3)C1)C2)C(=O)OCC(=O)c1ccc(C)cc1` (centres undefined): the cell number change is 44.3%. For the same compound, the AC50 under setting [2] is 6.51 µM [rising, full curve, poor fit]. For the same compound, under setting [1], the AC50 was 1.46 µM [falling, full curve].

On to `CCC(C(=O)OCC(=O)NC(=O)c1ccccc1)c1ccccc1` (centres undefined), for which the cell number change was -25%. Moreover, under setting [1], the AC50 was 29.1 µM [falling, single point].

`COc1ccc(C2CCCN2C(=O)c2cccs2)cc1` (centres undefined): the cell number change amounted to 22.5%. Besides, under setting [1], the AC50 is 29.1 µM [rising, single point].

On to `COc1ccc(OC)c(C2SCCN2S(=O)(=O)c2cccc(C(F)(F)F)c2)c1` (centres undefined), for which the cell number change was -16.6%. Further, under setting [1], the AC50 was 32.6 µM [falling, single point].

For the compound `CN(c1ccc(C(=O)NC2CCCC2)cc1)S(=O)(=O)c1ccc(Cl)cc1`, the cell number change was -16.1%. Also, the AC50 under setting [1] is 18.4 µM [falling, partial curve, poor fit].

Turning to `CCc1ccccc1NC(=O)CCc1c(C)nc(SC)nc1C`, the AC50 under setting [1] is 0.116 µM [falling, partial curve, poor fit].

For the compound `O=C(c1cc2ccccc2oc1=O)N1CCN(Cc2ccc3c(c2)OCO3)CC1`, the cell number change was -7.42%. Also, the AC50 under setting [1] is 0.731 µM [rising, single point].

With `CCOC(=O)Nc1n[nH]c(NC(=O)OCC)c1[N+](=O)[O-]`, the cell number change was -1.14%. Besides, the AC50 under setting [2] is 0.326 µM [rising, full curve].

Take `Cc1ccnc(NS(=O)(=O)c2ccc(NC(=O)C3COc4ccccc4O3)cc2)n1` (centres undefined): the cell number change is -4.37%. In addition, the AC50 under setting [2] is 6.51 µM [falling, partial curve, poor fit].

On to `O=C(NCC(=O)N1CCN(c2ncccn2)CC1)c1ccc(F)cc1`, for which the cell number change amounted to 30.2%. In addition, the AC50 under setting [2] is 2.91 µM [rising, full curve]. Moreover, under setting [1], the AC50 was 2.59 µM [rising, full curve].

As for `CC(C)c1nc2sc3c(=O)[nH]cnc3c2c2c1CCCC2`, the cell number change was -14.5%. The AC50 under setting [1] is 0.146 µM [falling, full curve, poor fit].

Regarding `NS(=O)(=O)c1ccc(NC(=O)COC(=O)C2(c3ccccc3F)CCCC2)cc1`, the cell number change came out at 49.1%. The AC50 under setting [2] was 29.1 µM [rising, single point]. In addition, the AC50 under setting [1] was 29.1 µM [rising, single point].

Turning to `O=C(NCc1ccco1)/C(=C/c1ccc(F)cc1)NC(=O)c1ccccc1`, the cell number change was 31%. The AC50 under setting [1] was 0.82 µM [rising, partial curve, poor fit].

As for `COc1cc2[nH]c(=O)n(CCC(=O)N3CCN(Cc4ccc5c(c4)OCO5)CC3)c(=O)c2cc1OC`, the cell number change is 49.7%. Moreover, under setting [2], the AC50 was 29.1 µM [rising, single point]. Moreover, under setting [1], the AC50 was 2.59 µM [rising, full curve].

Take `Cc1csc2nc(CSc3nncn3-c3ccccc3)c(Br)n12`: the cell number change was found to be 25.7%. Moreover, the AC50 under setting [1] is 1.16 µM [rising, partial curve].

On to `CCc1nnc(NC(=O)CCS(=O)(=O)c2ccccc2)s1`, for which the cell number change is -0.451%.

As to `Fc1cnc(N2CCN(c3ccccc3)CC2)nc1N1CCN(c2ccccc2)CC1`, the cell number change is 40%. Also, the AC50 under setting [2] was 6.51 µM [rising, partial curve].

As to `O=C1CCC(C(=O)N2CCCC2)CN1CCc1cccc(F)c1` (centres undefined), the cell number change is 33.4%. The AC50 under setting [2] is 1.64 µM [rising, full curve, poor fit].

Turning to `O=C(NCC(=O)N1CCN(S(=O)(=O)c2cccs2)CC1)c1ccc(Cl)cc1`, the cell number change amounted to 72.5%.

On to `COc1ccc(C(C)(C)C)cc1S(=O)(=O)N1CCN(C)CC1`, for which the cell number change came to 4.25%. Under setting [1], the AC50 was 6.51 µM [rising, single point].

Consider `CCCOc1ccc(C(=O)NNC(=S)NC(=O)c2ccccc2[N+](=O)[O-])cc1`, for which the cell number change was -46%. Also, the AC50 under setting [2] is 32.6 µM [falling, partial curve]. Also, the AC50 under setting [1] was 5.8 µM [falling, single point].

`CCN(CC)c1ccc(C2=NNC(=O)CC2C)cc1[N+](=O)[O-]` (centres undefined): the AC50 by setting is: under setting [2], 3.26 µM [rising, partial curve]; under setting [1], 3.66 µM [rising, partial curve].

Turning to `CCOC(=O)CSc1cc(CS(=O)(=O)c2ccccc2)nc(-c2ccccc2)n1`, the cell number change came out at 9.61%. The AC50 under setting [1] is 3.26 µM [falling, single point].

As to `Cc1ccc(C(=O)C2CCN(CC(=O)Nc3ccc4c(c3)OCCO4)CC2)cc1`, the cell number change is -2.16%. The AC50 under setting [2] was 0.58 µM [rising, partial curve].

`CCc1ccccc1N(C(=O)c1ccco1)C(C(=O)NC1CCCC1)c1cccnc1` (centres undefined): the cell number change came out at 3.81%. For the same compound, the AC50 under setting [1] was 29.1 µM [falling, single point].

Consider `O=C(c1cc2ccccc2o1)N1CCN(c2ccccc2Cl)CC1`, for which the cell number change amounted to 2.59%. The AC50 under setting [1] was 0.92 µM [rising, full curve, poor fit].

In the case of `CN1CCN(CCCCOc2ccccc2-c2ccccc2)CC1`, the cell number change amounted to 12.3%. Also, the AC50 under setting [2] was 3.66 µM [falling, single point]. For the same compound, the AC50 under setting [1] is 6.51 µM [falling, single point].

For `COc1ccc(Nc2nc(-c3sc(C)nc3C)cs2)c(OC)c1`, the cell number change was -46.8%. Moreover, the concentration at half-maximal activity (AC50) under setting [2] was 8.2 µM [falling, partial curve, poor fit].

Take `O=C(NNC(=O)c1cccc(S(=O)(=O)N2CCc3ccccc32)c1)c1ccccc1`: the cell number change is 4.64%.

In the case of `O=C(CSc1ncccn1)NC1CCS(=O)(=O)C1` (centres undefined), the cell number change came to 47.4%. Further, under setting [2], the AC50 is 6.51 µM [rising, full curve, poor fit]. Moreover, the AC50 under setting [1] was 6.51 µM [rising, single point].

Take `Cc1ccc(C)c(NC(=O)Cn2nc([N+](=O)[O-])c(Br)c2C)c1`: the cell number change was -7.44%. Besides, the AC50 under setting [2] is 0.00461 µM [falling, full curve, poor fit]. In addition, under setting [1], the AC50 is 0.82 µM [falling, single point].

In the case of `Cc1ccsc1CN(C)C(=O)C(NC(=O)c1cccc(S(=O)(=O)N2CCOCC2)c1)C(C)C` (centres undefined), the cell number change was -13.5%. Moreover, under setting [1], the AC50 is 7.31 µM [falling, partial curve].

Regarding `CN(C)CCCOC(=O)Cc1ccc(Cl)cc1`, the cell number change is -66.1%. In addition, the AC50 under setting [2] is 0.116 µM [falling, full curve].

For `COc1ccccc1NC(=O)c1c(C)cc(=O)oc1C`, the cell number change was 2.86%. Moreover, under setting [1], the AC50 is 0.731 µM [rising, full curve].

For `COC(=O)c1c(C)[nH]c(C(=O)OCC(=O)N(CC(C)C)c2c(N)n(Cc3ccccc3)c(=O)[nH]c2=O)c1C`, the AC50 under setting [2] is 6.51 µM [rising, single point].

With `CCOc1ccc(-c2c(C#N)c(N)nc3sc(C(=O)c4ccccc4)c(N)c23)cc1`, the cell number change was 12.1%. Further, under setting [1], the AC50 is 0.058 µM [rising, full curve, poor fit].
